Structures can show the parent of a compound that is named as a salt. Some of the results follow. Many values rest on one well or one pass, so single values are uncertain.

The subject of this assay is Echinococcus multilocularis metacestodes. The experiment in a line: vesicle damage (PGI release) relative to positive control DB1127 at 20 µM, DMSO subtracted; higher = more parasite damage. As to conditions: treatment time 5 days.
As for `Clc1ccc(COC(Cn2ccnc2)c2ccc(Cl)cc2Cl)cc1` (stereo not drawn) [Econazole nitrate], the vesicle damage is 59.7%.

In the case of `Nc1ccc(O)c(C(=O)O)c1` [Mesalamine], the vesicle damage was -2.69%.

For `C[N+]1(C)[C@@H]2C[C@@H](OC(=O)C(O)(c3cccs3)c3cccs3)C[C@H]1[C@@H]1O[C@@H]12` [Tiotropium Bromide], the vesicle damage is -0.136%.

For the molecule `CC(=O)O[C@H]1CC[C@@]2(C)C(=CC[C@@H]3[C@@H]2CC[C@]2(C)C(c4cccnc4)=CC[C@@H]32)C1` [Abiraterone Acetate], the vesicle damage was found to be 3.44%.

As to `CCOC(=O)C1=C(C)NC(C)=C(C(=O)OC)C1c1cccc(Cl)c1Cl` (stereo not drawn) [Felodipine], the vesicle damage was determined as 7.6%.

On to `Cc1ccccc1N1C(=O)c2cc(S(N)(=O)=O)c(Cl)cc2NC1C` (stereo not drawn) [Metolazone], for which the vesicle damage was -1.83%.

Turning to `CCNC(=O)CCC/C=C\C[C@@H]1[C@@H](/C=C/[C@@H](O)CCc2ccccc2)[C@H](O)C[C@@H]1O` [Bimatoprost], the vesicle damage is -1.73%.

For the molecule `CC[C@H]1OC(=O)[C@H](C)[C@@H](O[C@H]2C[C@@](C)(OC)[C@@H](O)[C@H](C)O2)[C@H](C)[C@@H](O[C@@H]2O[C@H](C)C[C@H](N(C)C)[C@H]2O)[C@](C)(O)C[C@@H](C)C(=O)[C@H](C)[C@@H](O)[C@]1(C)O` [Erythromycin], the vesicle damage was found to be 2.27%.

For the molecule `CCC1=C[C@@H]2CN(C1)Cc1c([nH]c3ccccc13)[C@@](C(=O)OC)(c1cc3c(cc1OC)N(C)[C@H]1[C@@](O)(C(=O)OC)[C@H](OC(C)=O)[C@]4(CC)C=CCN5CC[C@]31[C@@H]54)C2` [Vinorelbine], the vesicle damage amounted to 9.59%.

With `CCCCC1C(=O)N(c2ccccc2)N(c2ccccc2)C1=O` [Phenylbutazone], the vesicle damage is -0.148%.

As to `CC(NCCc1ccc(O)cc1)C(O)c1ccc(O)cc1` (stereo not drawn) [Ritodrine hydrochloride], the vesicle damage is -0.86%.

As for `C[C@@H]1C[C@H]2[C@@H]3CCC4=CC(=O)C=C[C@]4(C)[C@@]3(F)[C@@H](O)C[C@]2(C)[C@@]1(O)C(=O)CO` [Dexamethasone], the vesicle damage was 2.94%.

For the molecule `C[C@H]1C[C@H]2[C@@H]3CCC4=CC(=O)C=C[C@]4(C)[C@H]3C(=O)C[C@]2(C)[C@@]1(O)C(=O)CO` [Betapar], the vesicle damage is -0.474%.

For `CCC(C)(C)C(=O)O[C@H]1C[C@@H](C)C=C2C=C[C@H](C)[C@H](CC[C@@H]3C[C@@H](O)CC(=O)O3)[C@H]21` [Simvastatin], the vesicle damage stood at 4.02%.

As for `C[C@H](Cn1cnc2c(N)ncnc21)OCP(=O)(O)O` [Tenofovir], the vesicle damage is -3.82%.

With `COc1cc(C(C)=O)ccc1OCCCN1CCC(c2noc3cc(F)ccc23)CC1` [Iloperidone], the vesicle damage is -8.74%.

On to `CCCCC1=NC2(CCCC2)C(=O)N1Cc1ccc(-c2ccccc2-c2nnn[nH]2)cc1` [Irbesartan], for which the vesicle damage was 8.13%.

Regarding `O=C1Cc2cc(CCN3CCN(c4nsc5ccccc45)CC3)c(Cl)cc2N1` [Ziprasidone hydrochloride], the vesicle damage was 4.36%.

In the case of `NC(=O)N1c2ccccc2C=Cc2ccccc21` [Carbamazepine], the vesicle damage was -3.05%.

On to `CC(=O)O[C@H]1C(=O)[C@@]2(C)[C@H]([C@H](OC(=O)c3ccccc3)[C@]3(O)C[C@H](OC(=O)[C@H](O)[C@@H](NC(=O)c4ccccc4)c4ccccc4)C(C)=C1C3(C)C)[C@]1(OC(C)=O)CO[C@@H]1C[C@@H]2O` [Paclitaxel], for which the vesicle damage came to 1.2%.

With `O=c1oc2cc(O)ccc2s1` [Tioxolone], the vesicle damage was -0.785%.

For `Nc1nc(=O)c2c([nH]1)NCC(CNc1ccc(C(=O)N[C@@H](CCC(=O)O)C(=O)O)cc1)N2C=O` (stereo partly drawn) [Leucovorin Calcium], the vesicle damage was -0.019%.

As for `CN(C)CCOc1ccc(/C(=C(/CCCl)c2ccccc2)c2ccccc2)cc1` [Toremifene Citrate], the vesicle damage is 17.5%.

As for `C[C@@](Cc1ccc(O)c(O)c1)(NN)C(=O)O` [Carbidopa], the vesicle damage was -4.87%.

Consider `CC(C)n1c(/C=C/C(O)CC(O)CC(=O)O)c(-c2ccc(F)cc2)c2ccccc21` (stereo not drawn) [Fluvastatin Sodium], for which the vesicle damage worked out at 0.968%.

In the case of `OCCN(CCO)c1nc(N2CCCCC2)c2nc(N(CCO)CCO)nc(N3CCCCC3)c2n1` [Dipyridamole], the vesicle damage was -10.2%.

Take `CC(=O)N[C@@H](CS)C(=O)O` [Acetylcysteine]: the vesicle damage was -4.07%.

With `CN1CC2c3ccccc3Oc3ccc(Cl)cc3C2C1` (stereo not drawn) [Asenapine maleate], the vesicle damage came out at 7.97%.

For `CC1=NN(c2ccc(C)c(C)c2)C(=O)/C1=N\Nc1cccc(-c2cccc(C(=O)O)c2)c1O` [Eltrombopag], the vesicle damage was found to be 16.3%.

For `Cc1cn([C@H]2C=C[C@@H](CO)O2)c(=O)[nH]c1=O` [Stavudine], the vesicle damage was -0.0432%.

In the case of `[I-].[K+]` [Potassium iodide], the vesicle damage was -6.74%.

Take `Cc1cccc(Nc2ccncc2S(=O)(=O)NC(=O)NC(C)C)c1` [Torsemide]: the vesicle damage is -2.92%.

Regarding `c1ccc2c(CC3=NCCN3)cccc2c1` [Naphazoline hydrochloride], the vesicle damage is -0.83%.

As for `CC(C)[C@H]1CC[C@H](C(=O)N[C@H](Cc2ccccc2)C(=O)O)CC1` [Nateglinide], the vesicle damage is 5.31%.

Regarding `COc1ccc(/C=C/C(=O)Nc2ccccc2C(=O)O)cc1OC` [Tranilast], the vesicle damage was -1.55%.

Regarding `Cn1c(=O)c2c(ncn2CC(O)CO)n(C)c1=O` (stereo not drawn) [Dyphylline], the vesicle damage was -2.04%.

Regarding `Cc1onc(-c2ccccc2Cl)c1C(=O)N[C@@H]1C(=O)N2[C@@H]1SC(C)(C)[C@@H]2C(=O)O` [Cloxacillin sodium], the vesicle damage came to 2.6%.

With `COc1ccccc1OCC(O)CN1CCN(CC(=O)Nc2c(C)cccc2C)CC1` (stereo not drawn) [Ranolazine dihydrochloride], the vesicle damage is -5.33%.

The values are drawn from the supplement of paper PMC4256282, “Profound Activity of the Anti-cancer Drug Bortezomib against Echinococcus multilocularis Metacestodes Identifies the Proteasome as a Novel Drug Target for Cestodes” (PLoS Neglected Tropical Diseases, 2014).
